Source: the supplement of paper PMC6414424
± gives the standard deviation of the averaged measurements. The list shows a part of the results.

Test system: APPdp1-6 iPSC-derived neurons
Assay: pThr231Tau/total Tau ratio Z-score vs DMSO vehicle wells; higher = more pThr231Tau relative to total Tau
Details: 5 µM; treatment time 5 days

Structure (SMILES) | pThr231Tau/total Tau ratio Z-score
CNCCc1ccccn1 [Prestw-543] | 0.522 ± 0.66
CC=CC(=O)N(CC)c1ccccc1C [Prestw-951] | 0.244 ± 0.065
CCCCCCCCCCCCCCCC(=O)OC[C@H](O)[C@H]1OC(=O)C(O)=C1O [ASCORBYL PALMITATE, antioxidant] | -0.611 ± 1.2
Nc1nc2c(ncn2COC(CO)CO)c(=O)[nH]1 [Prestw-839] | -0.435 ± 1.7
Clc1cccc(Cl)c1NC1=NCCN1 [Prestw-248] | 0.192 ± 0.32
CO[C@H]1/C=C/O[C@@]2(C)Oc3c(C)c(O)c4c(O)c(c5c(nc6cc(C)ccn65)c4c3C2=O)NC(=O)/C(C)=C\C=C\[C@H](C)[C@H](O)[C@@H](C)[C@@H](O)[C@@H](C)[C@H](OC(C)=O)[C@@H]1C [Prestw-1478] | -0.567 ± 0.51
CC(=O)O[C@]1(C(C)=O)CC[C@H]2[C@@H]3C=C(Cl)C4=CC(=O)CC[C@]4(C)[C@H]3CC[C@@]21C [Prestw-1374] | -0.356 ± 0.79
CCCNC(=O)NS(=O)(=O)c1ccc(Cl)cc1 [Prestw-323] | -0.905 ± 0.21
CCN(CC)C(C)CN1c2ccccc2Sc2ccccc21 (stereo not given) [Prestw-840] | -1.57 ± 1.4
CCCCC1C(=O)N(c2ccccc2)N(c2ccc(O)cc2)C1=O (stereo not given) [Prestw-1049] | -0.0955 ± 0.72
N[C@H]1CONC1=O [Prestw-1089] | -1.21 ± 0.9
N[C@H]1CONC1=O [Prestw-1086] | 0.609 ± 0.27
CCN(CC)C(=O)Nc1ccc(OCC(O)CNC(C)(C)C)c(C(C)=O)c1 (stereo not given) [Prestw-1132] | -0.286 ± 0.054
CC(=O)Nc1ccc(OC(=O)c2ccccc2O)cc1 [ACETAMINOSALOL    Therap cat: analgesic, antipyretic] | 1.15 ± 1.2
COc1cc2nc(N3CCN(C(=O)C4COc5ccccc5O4)CC3)nc(N)c2cc1OC (stereo not given) [Prestw-858] | 0.0527 ± 0.72
Cc1cc(C(C)(C)C)cc(C)c1CC1=NCCN1 [Prestw-223] | 0.685 ± 0.25
CCN(CCCCOC(=O)c1ccc(OC)c(OC)c1)C(C)Cc1ccc(OC)cc1 (stereo not given) [Prestw-310] | -0.531 ± 0.21
C[C@@H]1C[C@H]2[C@@H]3CCC4=CC(=O)C=C[C@]4(C)[C@@]3(F)[C@@H](O)C[C@]2(C)[C@H]1C(=O)CO [DESOXYMETASONE, antiinflammatory] | 1.81 ± 1.1
CCN(CC)CCOCCOC(=O)C1(c2ccccc2)CCCC1 [Prestw-387] | -0.71 ± 2
Cc1c(N)c(=O)n(-c2ccccc2)n1C [Prestw-181] | 0.0318 ± 0.25

Structure (SMILES) | pThr231Tau/total Tau ratio Z-score
C=CCOc1ccccc1OCC(O)CNC(C)C (stereo not given) [Prestw-1057] | -1.1 ± 1.6
CCOC(=O)Nc1nc2ccccc2[nH]1 [LOBENDAZOLE, anthelmintic] | 1.47 ± 0.83
CCOC(=O)/C=C(C)/C=C/C=C(C)/C=C/c1c(C)cc(OC)c(C)c1C [Prestw-1409] | -0.596 ± 0.69
CN1CCN2c3ncccc3Cc3ccccc3C2C1 (stereo not given) [Prestw-1144] | 1.12 ± 0.63
Cc1cc(C)nc(NS(=O)(=O)c2ccc(N)cc2)n1 [Prestw-775] | 0.188 ± 0.27
CC1(C)O[C@@H]2C[C@H]3[C@@H]4C[C@H](F)C5=CC(=O)C=C[C@]5(C)[C@@]4(F)[C@@H](O)C[C@]3(C)[C@]2(C(=O)CO)O1 [Prestw-1419] | -0.343 ± 0.42
COc1cc(NS(=O)(=O)c2ccc(N)cc2)ncn1 [Prestw-823] | 1.02 ± 0.92
COC(=O)N/N=C/c1c[n+]([O-])c2ccccc2[n+]1[O-] [Prestw-1121] | -0.409 ± 0.2
CN(C(=O)CN(CCO)CC(=O)N(C)C(C)(C)Cc1ccccc1)C(C)(C)Cc1ccccc1 [Prestw-58] | -1.52 ± 0.34
CC(C(O)c1ccc(O)cc1)N1CCC(Cc2ccccc2)CC1 (stereo not given) [Prestw-311] | 0.321 ± 1.4
C[C@@H]1C/C=C/C=C/C=C/C=C/[C@H](O[C@@H]2O[C@H](C)[C@@H](O)[C@H](N)[C@@H]2O)C[C@@H]2O[C@](O)(C[C@@H](O)C[C@H]3O[C@@H]3/C=C/C(=O)O1)C[C@H](O)[C@H]2C(=O)O [NATAMYCIN, antibacterial] | -0.311 ± 0.27
COc1ccc(Cl)cc1C(=O)NCCc1ccc(S(=O)(=O)NC(=O)NC2CCCCC2)cc1 [Prestw-316] | 0.404
CC#C[C@]1(O)CC[C@H]2[C@@H]3CCC4=CC(=O)CCC4=C3[C@@H](c3ccc(N(C)C)cc3)C[C@@]21C [Prestw-299] | 0.1495 ± 0.00016
CCCCCCNC(=O)n1cc(F)c(=O)[nH]c1=O | 0.578 ± 1.1
CCCCC(CC)CN=C(N)NC(N)=NCCCCCCN=C(N)NC(N)=NCC(CC)CCCC (stereo not given) [Prestw-777] | -2.94 ± 0.68
CC(C)Oc1ccc2c(=O)c(-c3ccccc3)coc2c1 [IPRAFLAVONE    Therap cat: anabolic] | -0.612 ± 0.032
Cc1cc2cc3c(C)cc(=O)oc3c(C)c2o1 [Prestw-709] | 0.0247 ± 0.2
CC(=O)Nc1c(I)cc(I)c(C(=O)O)c1I [ACETRIAZOIC ACID, X-ray contrast medium] | 0.315 ± 0.61
CC(=O)Nc1nnc(S(N)(=O)=O)s1 [Prestw-3] | -0.143 ± 0.11
Clc1ccc2nsnc2c1NC1=NCCN1 [Prestw-1182] | -0.258 ± 0.23

Single entries from the entries so far:
Nc1nc2c(ncn2COC(CO)CO)c(=O)[nH]1 [Prestw-839] – pThr231Tau/total Tau ratio Z-score: -0.435 ± 1.7
CCN(CC)CCOCCOC(=O)C1(c2ccccc2)CCCC1 [Prestw-387] – pThr231Tau/total Tau ratio Z-score: -0.71 ± 2
COc1cc(NS(=O)(=O)c2ccc(N)cc2)ncn1 [Prestw-823] – pThr231Tau/total Tau ratio Z-score: 1.02 ± 0.92
